Measured values published in publication PMC5450235.
These are yes or no findings as the source states them, for the method shown. Binding seen in cells or lysates may run through a third protein. Some binding calls cover weakened binding; strength is not graded here. Sequences can lack the tags named with a protein.

The chains behind the UniProt entries cited, without tags or fusion partners. Where a name states a change or a piece, a line headed by the entry shows the natural chain unless it says otherwise. A line that says so, or that is headed by a name, gives the form on record, which may keep a tag or linker.
UniProt Q9Y3D6: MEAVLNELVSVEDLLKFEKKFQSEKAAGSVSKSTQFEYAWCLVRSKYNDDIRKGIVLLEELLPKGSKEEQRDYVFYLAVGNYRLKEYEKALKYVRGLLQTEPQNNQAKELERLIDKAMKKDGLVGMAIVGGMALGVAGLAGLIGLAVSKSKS
UniProt P51648: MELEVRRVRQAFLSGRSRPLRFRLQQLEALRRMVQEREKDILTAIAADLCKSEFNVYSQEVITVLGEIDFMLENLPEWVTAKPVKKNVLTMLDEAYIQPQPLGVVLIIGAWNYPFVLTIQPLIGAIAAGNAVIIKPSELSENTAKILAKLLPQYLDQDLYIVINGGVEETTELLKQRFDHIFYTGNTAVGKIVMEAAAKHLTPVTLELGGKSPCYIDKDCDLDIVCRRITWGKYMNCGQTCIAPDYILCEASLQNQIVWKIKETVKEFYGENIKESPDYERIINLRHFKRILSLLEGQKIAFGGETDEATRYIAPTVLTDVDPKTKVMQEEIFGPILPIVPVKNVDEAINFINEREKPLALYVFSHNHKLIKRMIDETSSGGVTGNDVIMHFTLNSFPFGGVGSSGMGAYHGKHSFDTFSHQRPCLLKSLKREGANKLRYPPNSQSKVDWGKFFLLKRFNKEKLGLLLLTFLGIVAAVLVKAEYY
GFP-FALDH-PO (not stated (human genes cloned from HepG2 RNA)) (P51648, form named): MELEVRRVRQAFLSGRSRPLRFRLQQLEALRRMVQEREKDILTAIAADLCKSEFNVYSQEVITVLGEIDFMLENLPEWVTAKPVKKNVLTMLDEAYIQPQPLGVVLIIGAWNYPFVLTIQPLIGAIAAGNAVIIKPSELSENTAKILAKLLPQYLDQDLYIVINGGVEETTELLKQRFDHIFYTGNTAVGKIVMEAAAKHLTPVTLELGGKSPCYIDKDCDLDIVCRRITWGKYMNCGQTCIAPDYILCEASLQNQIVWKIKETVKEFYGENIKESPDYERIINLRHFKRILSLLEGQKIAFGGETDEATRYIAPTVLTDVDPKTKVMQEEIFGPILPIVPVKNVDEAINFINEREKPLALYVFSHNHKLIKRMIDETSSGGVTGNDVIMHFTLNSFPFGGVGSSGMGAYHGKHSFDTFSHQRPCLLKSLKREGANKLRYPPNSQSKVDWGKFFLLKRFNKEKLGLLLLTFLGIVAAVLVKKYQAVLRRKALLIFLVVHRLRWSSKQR

Tests used:
FLAG-FIS1 = FLAG-FIS1 (UniProt Q9Y3D6); test: co-IP; COS-7 cells co-expressing HA-PEX19 and FLAG-tagged TA proteins; cells treated with 1 mM DSP before lysis; FLAG-antibody-coupled agarose beads, eluted with 50 mM NaOH; immunoblot
[1] = biological target: T1, GFP-ACBD5 (not stated (human genes cloned from HepG2 RNA)) (UniProt Q5T8D3); test: co-IP; COS-7 cells co-expressing HA-PEX19 and GFP fusions; cells treated with 1 mM DSP and quenched before lysis (0.5% Triton X-100, 150 mM NaCl); GFP-Trap beads, 2 h at 4°C; immunoblot
T1 sequence: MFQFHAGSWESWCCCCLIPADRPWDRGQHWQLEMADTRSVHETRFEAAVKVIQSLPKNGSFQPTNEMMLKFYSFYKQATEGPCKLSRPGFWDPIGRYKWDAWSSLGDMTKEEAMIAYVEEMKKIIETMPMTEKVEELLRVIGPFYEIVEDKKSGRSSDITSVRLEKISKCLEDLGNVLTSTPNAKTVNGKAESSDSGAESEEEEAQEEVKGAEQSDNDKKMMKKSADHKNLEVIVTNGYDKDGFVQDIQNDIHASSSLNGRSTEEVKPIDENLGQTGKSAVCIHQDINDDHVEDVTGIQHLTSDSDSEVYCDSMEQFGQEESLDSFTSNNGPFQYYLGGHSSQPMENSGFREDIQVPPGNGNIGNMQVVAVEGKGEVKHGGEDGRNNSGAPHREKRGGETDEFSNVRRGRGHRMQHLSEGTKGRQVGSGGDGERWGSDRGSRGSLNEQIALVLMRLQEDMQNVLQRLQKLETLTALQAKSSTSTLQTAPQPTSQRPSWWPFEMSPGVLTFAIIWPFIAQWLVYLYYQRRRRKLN

[2] = biological target: GFP-FALDH-ER (not stated (human genes cloned from HepG2 RNA)) (UniProt P51648); test: as above
[3] = biological target: GFP-FALDH-PO (not stated (human genes cloned from HepG2 RNA)) (UniProt P51648); test: as above

binding (FLAG-FIS1): binds
binding [1]: binds
binding [2]: no binding
binding [3]: binds
B1: HA-PEX19 (protein, UniProt P40855 1-299)
chain: MAAAEEGCSVGAEADRELEELLESALDDFDKAKPSPAPPSTTTAPDASGPQKRSPGDTAKDALFASQEKFFQELFDSELASQATAEFEKAMKELAEEEPHLVEQFQKLSEAAGRVGSDMTSQQEFTSCLKETLSGLAKNATDLQNSSMSEEELTKAMEGLGMDEGDGEGNILPIMQSIMQNLLSKDVLYPSLKEITEKYPEWLQSHRESLPPEQFEKYQEQHSVMCKICEQFEAETPTDSETTQKARFEMVLDLMQQLQDLGHPPKELAGEMPPGLNFDLDALNLSGPPGASGEQCLIM
